The supplement of paper PMC12259267, “Disruption of the KLHL37–N-Myc complex restores N-Myc degradation and arrests neuroblastoma growth in mouse models” (The Journal of Clinical Investigation, 2025)
Structures can show the parent of a compound that is named as a salt. The list shows a part of the results. Repeats are few or missing, and single values can be far off.

Tested on: SK-N-BE(2)
Experiment: inhibition of N-Myc immunofluorescence signal per cell relative to control (fraction); higher = stronger N-Myc protein reduction
Settings: 1 µM; 9 h

Row | SMILES | inhibition of N-Myc immunofluorescence signal per cell
1 | c1ccc(C2CN3CCSC3=N2)cc1 (configuration not stated) [Tetramisole (hydrochloride)] | -0.0517
2 | COc1cc2c(NC3CCN(C(C)C)CC3)nc(C3CCCCC3)nc2cc1OCCCN1CCCC1 | 0.169
3 | N#CSc1cc(SC#N)c(N)nc1N | -0.143
4 | CCN1C(=O)C=CC1=O [N-Ethylmaleimide] | -0.0245
5 | CSCC[C@H](NC(=O)c1ccc(NC[C@@H](N)CS)cc1-c1ccccc1)C(=O)O | 0.0318
6 | COc1cc2ccc(=O)oc2cc1O[C@@H]1O[C@H](CO)[C@@H](O)[C@H](O)[C@H]1O [Scopolin] | 0.138
7 | C=CCO/N=C1\c2ccccc2-c2nc(C#N)c(C#N)nc21 | 0.0338
8 | Clc1ccc(NN=C(c2ccccc2)c2ccccn2)nc1 | 0.0567
9 | COc1cc(C(=O)O)ccc1NC(=O)[C@@H]1N[C@@H](CC(C)(C)C)[C@](C#N)(c2ccc(Cl)cc2F)[C@H]1c1cccc(Cl)c1F [Idasanutlin] | -0.00624
10 | CC(=O)N[C@H](C(=O)N1C[C@H](O)C[C@H]1C(=O)NCc1ccc(-c2scnc2C)cc1)C(C)(C)S [VH032 thiol] | 0.275
11 | CC(NC(=O)c1ccccc1/N=C/c1c(O)ccc2ccccc12)c1ccccc1 (configuration not stated) [Sirtinol] | 0.027
12 | O=C(O)c1ccc(CN2CCC(CN[C@@H]3C[C@H]3c3ccccc3)CC2)cc1 | 0.0778
13 | CCCC(=O)[O-].[Na+] [Sodium Butyrate] | 0.0512
14 | CC[C@@]1(O)C[C@H](O[C@H]2C[C@H](N(C)C)[C@H](O[C@H]3C[C@H](O)[C@H](O[C@H]4CCC(=O)[C@H](C)O4)[C@H](C)O3)[C@H](C)O2)c2c(cc3c(c2O)C(=O)c2c(O)cccc2C3=O)[C@H]1C(=O)OC [Aclacinomycin A hydrochloride] | 0.553
15 | O=C(NO)c1ccc(CC(=O)N(CCO)c2ccccc2)cc1 | -0.117
16 | CCOc1cc(/C=C2/C(=O)N(c3ccccc3)N=C2C)cc(Cl)c1OCC(=O)OC | 0.144
17 | COC(=O)CN(c1ccc(CN(c2ccc(OCc3ccc(C)cc3)c(C(=O)OC)c2)S(=O)(=O)Cc2ccccc2)cc1)S(C)(=O)=O | 0.233
18 | O=C(O)CNC(=O)c1c(O)c2ccccc2n(OCC2CC2)c1=O [Desidustat] | -0.0164
19 | O=C(NC[C@H](O)CN1CCc2ccccc2C1)c1cc(NC2COC2)ncn1 | -0.0188
20 | Nc1cccc2c1C(=O)N(C1CCC(=O)NC1=O)C2=O (configuration not stated) [Pomalidomide] | 0.03
21 | CN1CCc2c(c3ccccc3n2Cc2ccc(C(=O)NO)cc2)C1 [Tubastatin A (Hydrochloride)] | -0.0421
22 | NC(=O)c1cccnc1 [Nicotinamide] | 0.085

Random excerpt: two compounds from above, in no set order.
Row | SMILES | inhibition of N-Myc immunofluorescence signal per cell
19 | O=C(NC[C@H](O)CN1CCc2ccccc2C1)c1cc(NC2COC2)ncn1 | -0.0188
3 | N#CSc1cc(SC#N)c(N)nc1N | -0.143
